This note sets out measurements from the RNAGym collection of RNA variant scans (doi:10.1126/science.aae0568).

The labels stand for the following.
B1: tRNA (parent)
chain: GUUCCGUUGGCGUAAUGGUAACGCGUCUCCCUCCUAAGGAGAAGACUGCGGGUUCGAGUCCCGUACGGAACG

Variants at the floor of the assay are shown more often than the library holds them.

The variants in this data set derive from B1. The experiment in a line: yeast fitness relative to wild type (ratio to wild type); higher = fitter; tRNA-Arg(CCU), competitive growth, 37 C, YPD. The gist of the method: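 For this measurement, the tRNA-Arg(CCU) gene was varied by chemical synthesis at a 3% per-site mutation rate across 69 sites, and each variant was placed at the native genomic locus in Saccharomyces cerevisiae. The pooled strains went through a 24-hour competition in YPD at 37°C in six parallel replicates, with amplicons from start and end populations read by 100-nucleotide paired-end sequencing. Darwinian fitness relative to wild type followed from the change in each genotype's frequency. Genotypes needed ≥ 100 starting reads, and estimates < 0.5 were set to 0.5.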
For GUUCCGUUGGCGUAAUGGUAACGCGUCUCGCUCCUAAGGAGAAGACUGCGGGUUGGAGUCCCGUACGGAACG [C30G C55G], the yeast fitness was ≤ 0.5.

For GUUGGGUUGGAGUAAUGGUAACGCGUCUCCCUCCUAAGGAGAAGACUGCGGGUUCGAGUCCCGUACGGAACG [C4G C5G C11A], the yeast fitness was ≤ 0.5. The result for GUUCCGUUGGCGUAAUGGUAACGCGUCUACCUCCUAAGGAGAAGACUGCGGGUUCGAGUCACGUACGGAACG [C29A C61A] reads ≤ 0.5; that for GUUUCGUUGGCGUAAUGGUAACGCGUCUCCCUCCUAAGGAGAAGACUGCAGGUUCGAGUCCCGUACCGAACG [C4U G50A G67C], 0.578; that for GUCCCGUUGGCGUAAUGGGACCGCGUCUCCCACCUAUGGAGAAGACUGCGGGGUCGAGUCCCGAACGGAACG [U3C U19G A21C U32A A37U U53G U64A], ≤ 0.5.

As for GUUCCGUUGGCAUAAUGGUAACGCGUCUCCUUCCUAAGGAGAAGACUGCGGGUUGGAGUCCCGUACGGAACG [G12A C31U C55G], the yeast fitness is ≤ 0.5. Consider GUUCCGUUGGCGUAAUGGUAAGGCGUCUGCCUCCUAAGGACAAGACUGCGGGUUCGAGUCCCGUACGGAACG [C22G C29G G41C], for which the yeast fitness is ≤ 0.5. The result for GUUCCGUUGGCGUAAUGGUAACGCGUCUCCCCCCUAAGGAGACGACUGCGGGUUCGAGUCCCGUACGGAACG [U32C A43C] reads 0.83. As to GUUCCGUUGGCGUAAUGGUAACGCGUCUCCCUCGUAAGGAGACGACUGCUGGUUCGAGUCCCGUACGGAACG [C34G A43C G50U], the yeast fitness was ≤ 0.5. Consider GUUCCGUUGGCGUCAUGGUAACGCGUCUCCCUCCUGAGGAAAAGACUCCGGGUUCGAGCCCCGUACGGAACG [A14C A36G G41A G48C U59C], for which the yeast fitness came out at 0.7. For GUUCCGUUGGCGCAAUGGUAACCCGUCUCCCUCCUAAAGAGAAGACUGCGGGUUCGAGUCUCGUACGGAACG [U13C G23C G38A C61U], the yeast fitness was ≤ 0.5.

On to GUUCCAUUGGCCUGAUGGUAACGCGUCUCCCUCCUAAGGAGAAGACUGGGGGUUCGAGUCCCGUACGGAACG [G6A G12C A14G C49G], for which the yeast fitness was ≤ 0.5. Consider GUGCCGUUGGCGUAGUGGUAACGGGUCUCCCUCCUAAGGAGAAGACUGCGGGUUCGAGUCCCCUACAGAACG [U3G A15G C24G G63C G67A], for which the yeast fitness was ≤ 0.5. The result for GUGCCGUUGGCGUAAUGGUAACGCGUAUCCCUCCUAAGGAGAAGACUGCGGGUUCGAGUCCCGUACGGAACG [U3G C27A] reads 0.633; that for GUUACGUUGGCGUAAUGGUAACGCGUCUCCCUCGUAAGGACAAGACUGUGGGUUCGAGUCCAGUACGGAACG [C4A C34G G41C C49U C62A], ≤ 0.5. Turning to GUUCGGAUGGCGUAAUGGUCACGCGUCUCCCUCCUAAGGAGAAGACUGAGGGUUCGAGUCCCGUACGGAACG [C5G U7A A20C C49A], the yeast fitness was ≤ 0.5. The result for GUUCCGAUGGCGUAAUGGUAACGCGUCUCCCUCCUAAGGAGAAGACUGCGGGUUCGAGAUCCGUACGGAACG [U7A U59A C60U] reads ≤ 0.5; that for GUUCCGUUGGCGUAAUGGUAACGCGUCUCCCUCCUAAGGAGAAGACCGCGGGUUCGGGUCCUGUACGGAACG [U47C A57G C62U], ≤ 0.5.

In the case of GUUCCGUUGGCGUAAUGGUAACGCGUCUACCUCCUAAGGCGAAGACUGUGGGGUCGAGUCCCGUACGGAACG [C29A A40C C49U U53G], the yeast fitness is ≤ 0.5.

Turning to GUUCCGUUGCCGUAAUGGUAACGCGUCUCCCUCCUAAGAAGAAGACUGCGGGUUCGAGUCCCGUACGGAACG [G10C G39A], the yeast fitness worked out at 0.563. Under GUUCCGUUGGCGUAAUGGUAACGCGUCUCCCUCCUAGGGAGAAGACUGCGCGUUCGAGUCCCGUACGGAACG [A37G G51C] stands 0.601. Under GUUCCCUUGGCGUAAUGGAAACGCGUCUCCCUCCUAACGAGAAGACUGCGGGUUAGAGUCCCCUACGGAACG [G6C U19A G38C C55A G63C] stands ≤ 0.5; under GUUCCGUUGGCGUAAUGCUAACGCGUCUUCCUCUUAGGGAGAAGACUGCGGGUUCGACUCCCGUACGGAACG [G18C C29U C34U A37G G58C], ≤ 0.5.

With GUUCCGUUGGCGUAAUGGUAACGCGUCUCGCUCCUAAGGAGCAGACUGCGGGUUCGAGAUCCGUAUGGAACG [C30G A42C U59A C60U C66U], the yeast fitness was ≤ 0.5. For GUUCCGUAGGCGUAAUGGUAACGCCUCUCCCUCCUACGGAGAAGACUGCGGGUUCGAGUCCCGUACGGAACG [U8A G25C A37C], the yeast fitness is ≤ 0.5. As to GUUGCGUUGGCGUAAUGGUAACGCGUCACCGUCCUAAGGAGAAGACUGCGGGUUCGGGUCCUGUACGGAACG [C4G U28A C31G A57G C62U], the yeast fitness turned out to be 0.532. Under GUUCCGUUGGCGUAAUGGUAACGCGUCUUCCUCCUAAGGAGAAGACUGCGGGUUCGAGUACCGUACGUCACG [C29U C60A G68U A69C] stands ≤ 0.5; under GUUCCGUUGGCCUAAUGGUAACGCGUCUCCCUCCUAAGGAGAAGACUGCGGGUUCGAGUCAGAUACGGAACG [G12C C61A C62G G63A], ≤ 0.5.

Turning to GUUCCGUUGGCGUAAUGGUAACCCGUCUUCGUCCUAAGGAGAAGACUGCGGGUUCGAGUCCCGUACGGAACG [G23C C29U C31G], the yeast fitness is ≤ 0.5. For the variant GUUCCGUUCGCGUAAUGGUAACGCGUCUCCCUCGUAAGGAGAAGACCCCGGGUUCGAGUCCCGUACGGAACG [G9C C34G U47C G48C], the yeast fitness is ≤ 0.5. With GUUCCGGUGGCGUAAUGGUAACGCGUCUCCCCCCUAAGGAGAAGACUGCGGGUUCGAGUCACGUACGGAACG [U7G U32C C61A], the yeast fitness was ≤ 0.5.

GGUCCGUUGGCGGAACGGUAACGCGUCUCCCUCCUAAGGAGAAGACUGAGGGUUCGAGUCCCGUACGGAACG [U2G U13G U16C C49A]: the yeast fitness is ≤ 0.5. On to GUUCCGUUGGCGUAAUGGUAGCGCGUCUCCCUCCUAAGGAGAAGACUGUGGGUUCGAGGCCCGUACGGAACG [A21G C49U U59G], for which the yeast fitness was 0.619. The result for GUUCCGUUGGCGUAAUGGUAACGCGUCUCCCUCCUAAGGAGAAGACAACGGGUUCGAGUCCCGUACGGAUCG [U47A G48A A70U] reads 0.748.

With GUUCCGUUGGCGUAAUGGUAACGCGUCUCCCUCCGAUGGAGAAGACUGCGGGUUCGAGUCCCGUACGGAACG [U35G A37U], the yeast fitness is ≤ 0.5.

GUUCCGUUGGCGUAAUGGUAACGCGUCUCCCUCCUAAAGAGAAGACUGCGGGUUCGAGUUCCGUACGGAACG [G38A C60U]: the yeast fitness came out at 0.831.

As to GUUCCGUUGGUGUAAUCGUAUCGCGUCUCCCUCCUACGGAGAAGACUGCGGGUUCCAGUCCCGUACGGAACG [C11U G17C A21U A37C G56C], the yeast fitness is ≤ 0.5. Under GUUCCGUUACCGUAAUGGUAACGCGUCUCCAUCCUGAGGAGAAGACUGCGGGUUCGAGUCCCGUACGGAACG [G9A G10C C31A A36G] stands ≤ 0.5.
